# Measurements published in patent publication US20080242608A1.
# Sequences of proteins named here, by UniProt entry; tags and fusion partners are left off.
# UniProt O43524: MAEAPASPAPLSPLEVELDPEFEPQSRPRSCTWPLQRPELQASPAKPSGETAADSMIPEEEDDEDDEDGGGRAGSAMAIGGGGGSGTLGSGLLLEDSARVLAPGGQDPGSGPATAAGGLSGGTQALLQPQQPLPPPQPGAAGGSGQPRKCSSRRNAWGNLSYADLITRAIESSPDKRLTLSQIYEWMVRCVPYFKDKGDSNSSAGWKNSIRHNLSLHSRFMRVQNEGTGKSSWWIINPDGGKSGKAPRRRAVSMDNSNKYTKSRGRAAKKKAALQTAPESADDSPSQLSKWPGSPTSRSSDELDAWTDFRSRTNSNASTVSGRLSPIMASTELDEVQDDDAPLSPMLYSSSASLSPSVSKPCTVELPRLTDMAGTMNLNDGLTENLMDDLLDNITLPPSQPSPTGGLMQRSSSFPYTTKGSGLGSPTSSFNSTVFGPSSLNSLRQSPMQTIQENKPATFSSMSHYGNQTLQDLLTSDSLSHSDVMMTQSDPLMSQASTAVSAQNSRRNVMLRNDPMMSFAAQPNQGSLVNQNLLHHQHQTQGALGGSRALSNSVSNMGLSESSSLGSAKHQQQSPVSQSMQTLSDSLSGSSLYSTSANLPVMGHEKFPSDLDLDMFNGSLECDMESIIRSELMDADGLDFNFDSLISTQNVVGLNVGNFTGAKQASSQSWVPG
# UniProt P31946: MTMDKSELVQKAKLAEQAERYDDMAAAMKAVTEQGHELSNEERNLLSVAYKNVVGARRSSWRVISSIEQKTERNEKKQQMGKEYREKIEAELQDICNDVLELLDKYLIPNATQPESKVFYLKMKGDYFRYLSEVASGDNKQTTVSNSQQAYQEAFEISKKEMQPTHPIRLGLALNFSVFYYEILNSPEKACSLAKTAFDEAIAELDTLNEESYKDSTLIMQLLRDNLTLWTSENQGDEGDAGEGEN
# These are yes or no findings as the source states them, for the method shown. Binding seen in cells or lysates may run through a third protein. Some entries that bind do so weakly or less than the wild type.
# Biological target: GFP-FOXO3 (UniProt O43524)
# Assay: co-IP from 293T lysates with GFP antibody, 14-3-3β immunoblot
substance,measurement,value
"14-3-3β (endogenous, 293T cells) (from UniProt P31946 1-246)",binding,binds
